# Test results taken from the supplement of paper PMC4604168 (melanoma cell lines).
# Some of the results follow. Many values rest on one well or one pass, so single values are uncertain.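 Cells were imaged in 1,536-well plates, and nuclei stained with an antibody against cleaved PARP were counted against all DNA-stained nuclei to give the apoptosis fraction. Screening doses were chosen to leave most cells alive, and resting and induced cleaved-PARP levels differ strongly between cell lines.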
# What was measured:
# Test in all cases: cleaved PARP positive nuclei fraction relative to DMSO control; melanoma cells; higher = more apoptosis
# Conditions in all cases: library dose: low library concentration; 72 h
# 501Mel = test system: 501Mel
# A101D = test system: A101D
# A2058 = test system: A2058
# A375 = test system: A375
# C32 = test system: C32
# CBRC013 = test system: CBRC013 (line from a melanoma biopsy)
# CBRC014 = test system: CBRC014 (line from a melanoma biopsy)
# CBRC016 = test system: CBRC016 (line from a melanoma biopsy)
# CBRC017 = test system: CBRC017 (line from a melanoma biopsy)
# CBRC034 = test system: CBRC034 (line from a melanoma biopsy)
# COLO792 = test system: COLO792
# COLO800 = test system: COLO800
# COLO829 = test system: COLO829
# G361 = test system: G361
# IPC-298 = test system: IPC-298
# IST-MEL1 = test system: IST-MEL1
# LB2518-MEL = test system: LB2518-MEL
# LOXIMVI = test system: LOXIMVI
Compound,cleaved PARP positive nuclei fraction (501Mel) [%],cleaved PARP positive nuclei fraction (A101D) [%],cleaved PARP positive nuclei fraction (A2058) [%],cleaved PARP positive nuclei fraction (A375) [%],cleaved PARP positive nuclei fraction (C32) [%],cleaved PARP positive nuclei fraction (CBRC013) [%],cleaved PARP positive nuclei fraction (CBRC014) [%],cleaved PARP positive nuclei fraction (CBRC016) [%],cleaved PARP positive nuclei fraction (CBRC017) [%],cleaved PARP positive nuclei fraction (CBRC034) [%],cleaved PARP positive nuclei fraction (COLO792) [%],cleaved PARP positive nuclei fraction (COLO800) [%],cleaved PARP positive nuclei fraction (COLO829) [%],cleaved PARP positive nuclei fraction (G361) [%],cleaved PARP positive nuclei fraction (IPC-298) [%],cleaved PARP positive nuclei fraction (IST-MEL1) [%],cleaved PARP positive nuclei fraction (LB2518-MEL) [%],cleaved PARP positive nuclei fraction (LOXIMVI) [%]
"CN(NC(=O)CC(=O)NN(C)C(=S)c1ccccc1)C(=S)c1ccccc1 + COC(=O)c1sccc1S(=O)(=O)Nc1ccc(Nc2ccccc2)cc1OC [GSK0660] (first compound 0.006 µM, partner dose 1 µM)",174,51.9,218,2470,747,128,432,195,146,80.6,122,82,221,187,89,200,212,35.5
"c1cc(-c2cnn3cc(-c4ccc(OCCN5CCCCC5)cc4)cnc23)ccn1 [Dorsomorphin] + CC(C)CCN1c2nc(Nc3cc(F)c(O)c(F)c3)ncc2N(C)C(=O)C1C [BID1870] (first compound 0.4 µM, partner dose 0.2 µM)",92.2,43.7,145,133,97.7,264,108,23.7,207,112,74.3,76.2,34.8,180,81.3,58.6,104,41.7
"O=C(O)c1ccc(-c2c[nH]c3ncc(-c4ccccc4)cc23)cc1C1CCCC1 + CCCCCCCCCCCC1=C(O)C(=O)C=C(O)C1=O [Embelin] (first compound 0.16 µM, partner dose 1.2 µM)",225,104,119,177,83,220,96.4,110,94.1,82.9,98.9,295,57,56.3,78.7,70.6,88.8,15
"CCN(CC)CCCCNc1ncc2cc(-c3cc(OC)cc(OC)c3)c(NC(=O)NC(C)(C)C)nc2n1 + O=c1cc(-c2cccc3c2Sc2ccccc2S3)oc(N2CCOCC2)c1 [KU55933] (first compound 0.1 µM, partner dose 1 µM)",36.2,48.9,110,55.1,81.7,60.3,79.3,103,59.9,38.6,136,200,227,128,159,131,81.6,52
"CCc1ccc(CCOc2ccc(CC3SC(=O)NC3=O)cc2)nc1 (configuration not stated) [pioglitazone] + COc1cc(N2CCC(N3CCN(C)CC3)CC2)ccc1Nc1ncc(Cl)c(Nc2ccccc2S(=O)(=O)C(C)C)n1 [NVP-TAE684] (first compound 2 µM, partner dose 0.08 µM)",44.8,117,119,185,138,290,98.6,73.4,89.4,84.6,79.5,101,131,131,17.8,71.5,67,77.2
"O=S(=O)(c1ccccc1)N(CC(F)(F)F)c1ccc(C(O)(C(F)(F)F)C(F)(F)F)cc1 + Oc1nc(-c2ccc(C(F)(F)F)cc2)nc2c1CSCC2 [XAV939] (first compound 1.4 µM, partner dose 2 µM)",21.9,54.8,33.8,123,138,298,94.2,17.8,135,39.8,153,184,92.2,148,44.8,88.9,94.1,61.6
"COC(=O)c1sccc1S(=O)(=O)Nc1ccc(Nc2ccccc2)cc1OC + COc1cc(N2CCC(N3CCN(C)CC3)CC2)ccc1Nc1ncc(Cl)c(Nc2ccccc2S(=O)(=O)C(C)C)n1 [NVP-TAE684] (first compound 1 µM, partner dose 0.08 µM)",178,154,156,179,201,180,111,81.1,226,58.6,124,98.9,129,112,197,78.5,85.3,106
"O=C(O)C(=O)Nc1sc2c(c1C(=O)O)CCNC2 + Cn1cc(/C=C2\C(=O)Nc3cccnc32)c2ccccc21 [GW441756] (first compound 1.66667 µM, partner dose 0.4 µM)",74.6,244,111,93.7,177,49.9,74.8,58.9,34.9,94.8,88.4,62.2,39.3,130,84.8,133,112,27
"NCC(=O)Nc1ccc(-n2nc(C(F)(F)F)cc2-c2ccc3c(ccc4ccccc43)c2)cc1 + Oc1cc(-c2nc(-c3ccccc3)[nH]c2-c2ccncc2)ccc1Cl [L779450] (first compound 1 µM, partner dose 0.2 µM)",80.3,99.3,101,2200,104,130,98,36,97.4,89.5,16.7,103,31.2,166,111,195,102,39.6
"COc1cc2c(Oc3ccc4[nH]c(C)cc4c3F)ncnc2cc1OCCCN1CCCC1 [cediranib] + CC(C)CCN1c2nc(Nc3cc(F)c(O)c(F)c3)ncc2N(C)C(=O)C1C [BID1870] (first compound 0.4 µM, partner dose 0.2 µM)",94.3,156,28.7,19.3,92.6,367,95.6,68.3,248,124,65.6,106,105,115,77.2,108,44.4,77.2
"O=C(O)c1ccc(-c2c[nH]c3ncc(-c4ccccc4)cc23)cc1C1CCCC1 + COC(=O)c1sccc1S(=O)(=O)Nc1ccc(Nc2ccccc2)cc1OC [GSK0660] (first compound 0.16 µM, partner dose 1 µM)",74.7,87.4,45.5,148,38.4,41.9,126,371,107,46.5,162,76.6,129,92.9,130,67.9,84.5,153
"O=S(=O)(c1ccccc1)N(CC(F)(F)F)c1ccc(C(O)(C(F)(F)F)C(F)(F)F)cc1 + O=c1cc(-c2cccc3c2Sc2ccccc2S3)oc(N2CCOCC2)c1 [KU55933] (first compound 1.4 µM, partner dose 1 µM)",140,154,35.1,121,73.5,26.8,80.5,67.3,78,107,124,49.1,118,83.1,87.7,105,69.2,55.6
"COc1ccc(COc2ccc(Cc3cnc(N)nc3N)cc2OC)cc1 + CC(C)CCN1c2nc(Nc3cc(F)c(O)c(F)c3)ncc2N(C)C(=O)C1C [BID1870] (first compound 1 µM, partner dose 0.2 µM)",86,162,99.7,138,44.7,372,106,81.8,86,39.1,14.5,131,182,119,82.8,39.3,98.7,28.8
"CCN(CC)CCCCNc1ncc2cc(-c3cc(OC)cc(OC)c3)c(NC(=O)NC(C)(C)C)nc2n1 + O=C(O)C(=O)Nc1sc2c(c1C(=O)O)CCNC2 [TCS401] (first compound 0.1 µM, partner dose 1.66667 µM)",85.4,311,41.1,129,51.9,142,73.3,242,63.9,27.2,124,72.8,70.5,79,77.3,52.9,159,99.1
"O=S(=O)(c1ccccc1)N(CC(F)(F)F)c1ccc(C(O)(C(F)(F)F)C(F)(F)F)cc1 + COc1cc(N2CCC(N3CCN(C)CC3)CC2)ccc1Nc1ncc(Cl)c(Nc2ccccc2S(=O)(=O)C(C)C)n1 [NVP-TAE684] (first compound 1.4 µM, partner dose 0.08 µM)",59.8,352,84.2,197,121,537,114,131,97,92.3,87.5,75.9,114,110,43.8,128,184,68.2
"COc1cc2c(Oc3ccc4[nH]c(C)cc4c3F)ncnc2cc1OCCCN1CCCC1 [cediranib] + O=C(O)C(=O)Nc1sc2c(c1C(=O)O)CCNC2 [TCS401] (first compound 0.4 µM, partner dose 1.66667 µM)",88.7,192,70.3,254,51.1,99,84.8,74.2,58.8,121,59.9,81.1,125,18.1,95.3,38.6,75.4,60.2
"COc1cc2c(Oc3ccc4[nH]c(C)cc4c3F)ncnc2cc1OCCCN1CCCC1 [cediranib] + O=S(=O)(c1ccccc1)N(CC(F)(F)F)c1ccc(C(O)(C(F)(F)F)C(F)(F)F)cc1 [T0901317] (first compound 0.4 µM, partner dose 1.4 µM)",271,130,109,157,153,60,93.9,49,89.8,75,59.2,127,29.2,88.1,159,77.7,55.5,21.9
"Oc1cc(-c2nc(-c3ccccc3)[nH]c2-c2ccncc2)ccc1Cl + COc1cc(N2CCC(N3CCN(C)CC3)CC2)ccc1Nc1ncc(Cl)c(Nc2ccccc2S(=O)(=O)C(C)C)n1 [NVP-TAE684] (first compound 0.2 µM, partner dose 0.08 µM)",44.1,69.6,102,428,176,410,103,91.5,78.5,48,43.7,110,113,31,92.4,33.8,273,155
"COC(=O)c1sccc1S(=O)(=O)Nc1ccc(Nc2ccccc2)cc1OC + CC(C)CCN1c2nc(Nc3cc(F)c(O)c(F)c3)ncc2N(C)C(=O)C1C [BID1870] (first compound 1 µM, partner dose 0.2 µM)",109,79.6,30.1,217,153,74.2,106,40.6,109,126,95.9,73.5,121,203,184,488,83.4,58
